This is an account of results in patent US20240218067A1 (ONCOC4, published 2024).

The labels stand for the following.
T1: Siglec-10 (Biacore analysis) (UniProt Q96LC7)
T1 sequence (looked up): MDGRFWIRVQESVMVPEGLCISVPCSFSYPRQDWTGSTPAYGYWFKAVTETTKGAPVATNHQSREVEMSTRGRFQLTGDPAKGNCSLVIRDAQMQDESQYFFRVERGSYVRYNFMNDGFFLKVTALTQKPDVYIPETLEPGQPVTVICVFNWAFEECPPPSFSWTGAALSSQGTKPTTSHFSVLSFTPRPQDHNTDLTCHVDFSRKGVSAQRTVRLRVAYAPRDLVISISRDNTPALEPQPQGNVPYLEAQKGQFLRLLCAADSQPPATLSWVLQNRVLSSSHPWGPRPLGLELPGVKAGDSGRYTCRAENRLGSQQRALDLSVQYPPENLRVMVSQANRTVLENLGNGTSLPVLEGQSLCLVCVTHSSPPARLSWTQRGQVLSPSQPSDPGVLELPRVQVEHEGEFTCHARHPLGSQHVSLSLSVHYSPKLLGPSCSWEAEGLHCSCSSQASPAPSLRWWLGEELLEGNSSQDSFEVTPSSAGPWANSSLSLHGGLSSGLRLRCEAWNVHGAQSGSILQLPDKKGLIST

B1: humanized 31F11 clone #21 (antibody, V domains shown)
VH: QVTLKESGPALVKPTQTLTLTCTFSGFSLSTSGMGLSWIRQPPGKALEWLAHIYWDDDKRYNPSLKSRLTISKDTSKNQVVLTMTNMDPVDTATYYCVRGLYGNWFFDVWGQGTTVTVSS
VL: DIVMTQSPATLSVSPGERATLSCKASQNVGTAVAWYQQKPGQAPRLLIYSASNRYTGVPARFSGSGSGTEFTLTISSLQSEDFAVYFCQQYSSYPLTFGGGTKVEIK
notes: also called hu-VHv1VLv2
B2: humanized 31F11 clone #22 (antibody, V domains shown)
VH: QVTLKESGPALVKPTQTLTLTCTFSGFSLSTSGMGLSWIRQPPGKALEWLAHIYWDDDKRYNPSLKSRLTISKDTSKNQVVLTMTNMDPVDTATYYCVRGLYGNWFFDVWGAGTTVTVSS
VL: DIVMTQSPATLSVSPGERATLSCKASQNVGTAVAWYQQKPGQAPRLLIYSASNRYTGVPARFSGSGSGTEFTLTISSLQSEDFAVYFCQQYSSYPLTFGGGTKVEIK
notes: also called hu-VHv2VLv2
B3: humanized 31F11 clone #23 (antibody, V domains shown)
VH: QVTLKESGPALVKPTQTLTLTCTFSGFSLSTSGMGLSWIRQPPGKALEWLAHIYWDDDKRYNPSLKSRLTISKDTSKNQVVLTMTNMDPVDTATYYCARGLYGNWFFDVWGQGTTVTVSS
VL: DIVMTQSPATLSVSPGERATLSCKASQNVGTAVAWYQQKPGQAPRLLIYSASNRYTGVPARFSGSGSGTEFTLTISSLQSEDFAVYFCQQYSSYPLTFGGGTKVEIK

No constants are given. Whether binding was seen depends on the method and setting. Some binding calls cover weakened binding; strength is not graded here.

The target of this experiment is T1, Siglec-10 (Biacore analysis). Description: Biacore. In general terms: Surface plasmon resonance follows binding to a sensor surface in real time, without labels.
As to B1, the binding entry was “binds”.

Turning to B2, the binding result was “binds”.

In the case of B3, the binding result is given as “binds”.
